Our source for the Residual concentration values is patent US6919043B2, “Method of sterilization for container, apparatus using therefor and heat treatment for container” (Dai Nippon Printing Co., Ltd., priority 2002, dated 2005).

Where two headings read alike, the source gives them in different places.

For this data set the following is noted: rinsing 3 sec, 500 ml PET bottle.

For `OO` [hydrogen peroxide], the Residual concentration is, setting by setting: (Condition 1: preheating 50 °C, mist 35 μl, leaving 3.5 sec, hot blast Yes, standing 1.0 sec) 0.8 ppm; (Condition 2: preheating 50 °C, mist 25 μl, leaving 3.5 sec, hot blast Yes, standing 1.0 sec) 0.5 ppm; (Condition 3: preheating 50 °C (neck portion not heated from the outside), mist 20 μl, leaving 3.5 sec, hot blast Yes, standing 1.0 sec) 0.4 ppm; (Condition 4: preheating 50 °C, mist 15 μl, leaving 3.5 sec, hot blast Yes, standing 1.0 sec) 0.3 ppm; (Condition 5: preheating 50 °C (neck portion heated from the exterior), mist 20 μl, leaving 3.5 sec, hot blast Yes, standing 1.0 sec) 0.4 ppm; (Condition 6: preheating No, mist 40 μl, leaving 3.5 sec, hot blast Yes, standing 1.0 sec) 0.5 ppm. Further, the Residual concentration (Condition 7: preheating No, mist 20 μl, leaving 3.5 sec, hot blast Yes, standing 1.0 sec) came out at 0.2 ppm; the Residual concentration (Condition 8: preheating 50 °C, mist 30 μl, leaving 0.5 sec, hot blast Yes, standing 3.5 sec) is 0.5 ppm; the Residual concentration (Condition 9: preheating 50 °C, mist 20 μl, leaving 0.5 sec, hot blast Yes, standing 3.5 sec) is reported as 0.2 ppm; the Residual concentration (Condition 10: preheating 50 °C, mist 20 μl, leaving 3.5 sec, hot blast No, standing 1.0 sec) was 0.6 ppm; the Residual concentration (Condition 11: preheating 50 °C, mist 15 μl, leaving 3.5 sec, hot blast No, standing 1.0 sec) was 0.5 ppm.
